Results on one substance are retold here after publication PMC3968126.

The chains behind the UniProt entries cited, without tags or fusion partners.
UniProt P11142: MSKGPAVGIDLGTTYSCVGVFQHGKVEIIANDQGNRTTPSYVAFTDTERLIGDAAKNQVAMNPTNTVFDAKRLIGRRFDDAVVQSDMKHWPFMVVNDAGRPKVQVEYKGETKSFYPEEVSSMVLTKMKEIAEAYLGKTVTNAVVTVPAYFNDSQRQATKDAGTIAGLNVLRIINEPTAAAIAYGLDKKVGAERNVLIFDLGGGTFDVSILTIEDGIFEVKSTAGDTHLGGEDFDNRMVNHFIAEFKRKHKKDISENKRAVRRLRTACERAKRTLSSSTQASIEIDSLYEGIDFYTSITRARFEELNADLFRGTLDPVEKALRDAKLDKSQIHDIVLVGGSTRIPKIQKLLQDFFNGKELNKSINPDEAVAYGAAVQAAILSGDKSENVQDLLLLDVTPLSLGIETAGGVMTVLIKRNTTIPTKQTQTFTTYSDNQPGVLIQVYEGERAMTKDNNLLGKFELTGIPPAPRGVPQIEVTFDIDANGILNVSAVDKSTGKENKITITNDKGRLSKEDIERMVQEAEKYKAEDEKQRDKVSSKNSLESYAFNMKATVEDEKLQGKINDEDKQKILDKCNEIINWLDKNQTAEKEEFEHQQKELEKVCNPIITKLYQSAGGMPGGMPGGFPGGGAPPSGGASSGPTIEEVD

These are yes or no findings as the source states them, for the method shown. In cells and extracts the contact can be indirect. Here binding means that the protein was enriched with, or labelled near, the bait; the list need not be complete. Tags and fused reporters may be left off the sequences shown.

The target in the test is T1, B14-3xFLAG (human) (UniProt Q8TBM8).
T1 sequence: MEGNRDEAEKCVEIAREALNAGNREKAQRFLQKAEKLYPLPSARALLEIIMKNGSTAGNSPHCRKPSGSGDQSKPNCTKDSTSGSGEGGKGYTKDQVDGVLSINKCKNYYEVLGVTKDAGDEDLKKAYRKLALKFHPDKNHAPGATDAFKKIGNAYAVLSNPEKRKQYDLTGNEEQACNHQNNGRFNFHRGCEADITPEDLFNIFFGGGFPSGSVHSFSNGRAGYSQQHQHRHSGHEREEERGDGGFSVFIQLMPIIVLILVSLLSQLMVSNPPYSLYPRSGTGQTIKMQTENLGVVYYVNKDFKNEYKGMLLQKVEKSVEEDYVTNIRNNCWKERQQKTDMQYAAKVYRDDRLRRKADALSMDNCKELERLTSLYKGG
The test can be described thus: affinity purification with mass spectrometry; B14-3xFLAG at near endogenous level in Flp-In T-REx 293 cells; 0.1% digitonin lysate; anti-FLAG M2 agarose, 3xFLAG peptide elution, silver-stained bands excised for MS; control beads pre-blocked with 3xFLAG peptide.

On to Hsc70 (from UniProt P11142 1-646), for which the binding entry is “binds”.
